The source of these data is the supplement of paper PMC10849652.

Amino acid sequences for entries named in this document (tags omitted). A change or cut given only in a name is not applied to a line headed by its entry.
UniProt Q00610: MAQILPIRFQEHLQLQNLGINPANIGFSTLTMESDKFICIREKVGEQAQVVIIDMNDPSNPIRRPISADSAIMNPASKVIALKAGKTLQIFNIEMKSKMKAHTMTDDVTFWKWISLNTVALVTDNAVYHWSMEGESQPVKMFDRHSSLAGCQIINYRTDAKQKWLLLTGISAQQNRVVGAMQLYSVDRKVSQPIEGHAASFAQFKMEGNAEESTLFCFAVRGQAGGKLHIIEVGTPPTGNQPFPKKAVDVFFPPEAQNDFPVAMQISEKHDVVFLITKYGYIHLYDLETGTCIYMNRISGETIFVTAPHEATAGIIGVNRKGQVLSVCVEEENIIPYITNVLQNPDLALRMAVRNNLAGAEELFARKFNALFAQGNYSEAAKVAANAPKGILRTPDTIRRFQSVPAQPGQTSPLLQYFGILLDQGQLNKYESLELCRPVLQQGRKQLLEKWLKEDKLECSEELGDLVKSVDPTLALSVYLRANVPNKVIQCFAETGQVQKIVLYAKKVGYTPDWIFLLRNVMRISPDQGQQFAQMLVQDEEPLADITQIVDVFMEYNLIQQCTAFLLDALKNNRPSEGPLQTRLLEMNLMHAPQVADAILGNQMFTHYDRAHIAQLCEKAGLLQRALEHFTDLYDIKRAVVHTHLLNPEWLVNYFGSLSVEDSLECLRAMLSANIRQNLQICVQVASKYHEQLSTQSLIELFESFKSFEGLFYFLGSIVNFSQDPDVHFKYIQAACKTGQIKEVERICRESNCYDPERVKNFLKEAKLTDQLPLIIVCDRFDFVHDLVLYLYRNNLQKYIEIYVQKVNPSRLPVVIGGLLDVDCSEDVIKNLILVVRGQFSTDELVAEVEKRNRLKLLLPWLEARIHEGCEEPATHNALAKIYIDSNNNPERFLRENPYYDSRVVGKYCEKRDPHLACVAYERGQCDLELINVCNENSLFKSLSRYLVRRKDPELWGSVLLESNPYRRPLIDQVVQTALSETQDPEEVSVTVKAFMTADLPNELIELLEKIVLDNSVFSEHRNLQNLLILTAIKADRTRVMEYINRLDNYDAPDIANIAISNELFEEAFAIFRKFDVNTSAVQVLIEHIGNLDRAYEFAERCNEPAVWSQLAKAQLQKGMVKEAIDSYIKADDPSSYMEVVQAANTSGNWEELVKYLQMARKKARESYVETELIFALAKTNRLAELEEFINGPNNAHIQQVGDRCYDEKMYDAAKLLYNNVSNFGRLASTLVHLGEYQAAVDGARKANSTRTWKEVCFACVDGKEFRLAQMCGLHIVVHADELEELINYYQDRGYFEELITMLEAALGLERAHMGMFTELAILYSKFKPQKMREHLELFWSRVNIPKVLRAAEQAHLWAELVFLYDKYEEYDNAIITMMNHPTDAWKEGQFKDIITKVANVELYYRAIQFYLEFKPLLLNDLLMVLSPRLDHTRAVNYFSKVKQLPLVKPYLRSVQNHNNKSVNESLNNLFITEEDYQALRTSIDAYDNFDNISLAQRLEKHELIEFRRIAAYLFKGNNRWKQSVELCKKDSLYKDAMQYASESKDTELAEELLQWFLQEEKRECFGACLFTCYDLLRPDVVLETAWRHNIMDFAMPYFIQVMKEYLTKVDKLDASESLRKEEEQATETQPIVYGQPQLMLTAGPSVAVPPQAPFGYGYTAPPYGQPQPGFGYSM
UniProt Q8N5K1: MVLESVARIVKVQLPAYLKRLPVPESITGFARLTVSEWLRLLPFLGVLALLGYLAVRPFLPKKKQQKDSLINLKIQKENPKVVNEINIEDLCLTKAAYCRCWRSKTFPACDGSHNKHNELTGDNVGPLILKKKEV
UniProt P09496: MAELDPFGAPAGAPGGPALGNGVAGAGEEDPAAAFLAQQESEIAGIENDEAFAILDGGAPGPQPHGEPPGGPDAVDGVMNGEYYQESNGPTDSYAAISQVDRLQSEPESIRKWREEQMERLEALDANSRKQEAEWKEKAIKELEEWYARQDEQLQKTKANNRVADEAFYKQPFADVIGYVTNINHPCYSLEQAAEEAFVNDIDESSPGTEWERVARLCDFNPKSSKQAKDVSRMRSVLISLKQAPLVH
UniProt Q3L8U1: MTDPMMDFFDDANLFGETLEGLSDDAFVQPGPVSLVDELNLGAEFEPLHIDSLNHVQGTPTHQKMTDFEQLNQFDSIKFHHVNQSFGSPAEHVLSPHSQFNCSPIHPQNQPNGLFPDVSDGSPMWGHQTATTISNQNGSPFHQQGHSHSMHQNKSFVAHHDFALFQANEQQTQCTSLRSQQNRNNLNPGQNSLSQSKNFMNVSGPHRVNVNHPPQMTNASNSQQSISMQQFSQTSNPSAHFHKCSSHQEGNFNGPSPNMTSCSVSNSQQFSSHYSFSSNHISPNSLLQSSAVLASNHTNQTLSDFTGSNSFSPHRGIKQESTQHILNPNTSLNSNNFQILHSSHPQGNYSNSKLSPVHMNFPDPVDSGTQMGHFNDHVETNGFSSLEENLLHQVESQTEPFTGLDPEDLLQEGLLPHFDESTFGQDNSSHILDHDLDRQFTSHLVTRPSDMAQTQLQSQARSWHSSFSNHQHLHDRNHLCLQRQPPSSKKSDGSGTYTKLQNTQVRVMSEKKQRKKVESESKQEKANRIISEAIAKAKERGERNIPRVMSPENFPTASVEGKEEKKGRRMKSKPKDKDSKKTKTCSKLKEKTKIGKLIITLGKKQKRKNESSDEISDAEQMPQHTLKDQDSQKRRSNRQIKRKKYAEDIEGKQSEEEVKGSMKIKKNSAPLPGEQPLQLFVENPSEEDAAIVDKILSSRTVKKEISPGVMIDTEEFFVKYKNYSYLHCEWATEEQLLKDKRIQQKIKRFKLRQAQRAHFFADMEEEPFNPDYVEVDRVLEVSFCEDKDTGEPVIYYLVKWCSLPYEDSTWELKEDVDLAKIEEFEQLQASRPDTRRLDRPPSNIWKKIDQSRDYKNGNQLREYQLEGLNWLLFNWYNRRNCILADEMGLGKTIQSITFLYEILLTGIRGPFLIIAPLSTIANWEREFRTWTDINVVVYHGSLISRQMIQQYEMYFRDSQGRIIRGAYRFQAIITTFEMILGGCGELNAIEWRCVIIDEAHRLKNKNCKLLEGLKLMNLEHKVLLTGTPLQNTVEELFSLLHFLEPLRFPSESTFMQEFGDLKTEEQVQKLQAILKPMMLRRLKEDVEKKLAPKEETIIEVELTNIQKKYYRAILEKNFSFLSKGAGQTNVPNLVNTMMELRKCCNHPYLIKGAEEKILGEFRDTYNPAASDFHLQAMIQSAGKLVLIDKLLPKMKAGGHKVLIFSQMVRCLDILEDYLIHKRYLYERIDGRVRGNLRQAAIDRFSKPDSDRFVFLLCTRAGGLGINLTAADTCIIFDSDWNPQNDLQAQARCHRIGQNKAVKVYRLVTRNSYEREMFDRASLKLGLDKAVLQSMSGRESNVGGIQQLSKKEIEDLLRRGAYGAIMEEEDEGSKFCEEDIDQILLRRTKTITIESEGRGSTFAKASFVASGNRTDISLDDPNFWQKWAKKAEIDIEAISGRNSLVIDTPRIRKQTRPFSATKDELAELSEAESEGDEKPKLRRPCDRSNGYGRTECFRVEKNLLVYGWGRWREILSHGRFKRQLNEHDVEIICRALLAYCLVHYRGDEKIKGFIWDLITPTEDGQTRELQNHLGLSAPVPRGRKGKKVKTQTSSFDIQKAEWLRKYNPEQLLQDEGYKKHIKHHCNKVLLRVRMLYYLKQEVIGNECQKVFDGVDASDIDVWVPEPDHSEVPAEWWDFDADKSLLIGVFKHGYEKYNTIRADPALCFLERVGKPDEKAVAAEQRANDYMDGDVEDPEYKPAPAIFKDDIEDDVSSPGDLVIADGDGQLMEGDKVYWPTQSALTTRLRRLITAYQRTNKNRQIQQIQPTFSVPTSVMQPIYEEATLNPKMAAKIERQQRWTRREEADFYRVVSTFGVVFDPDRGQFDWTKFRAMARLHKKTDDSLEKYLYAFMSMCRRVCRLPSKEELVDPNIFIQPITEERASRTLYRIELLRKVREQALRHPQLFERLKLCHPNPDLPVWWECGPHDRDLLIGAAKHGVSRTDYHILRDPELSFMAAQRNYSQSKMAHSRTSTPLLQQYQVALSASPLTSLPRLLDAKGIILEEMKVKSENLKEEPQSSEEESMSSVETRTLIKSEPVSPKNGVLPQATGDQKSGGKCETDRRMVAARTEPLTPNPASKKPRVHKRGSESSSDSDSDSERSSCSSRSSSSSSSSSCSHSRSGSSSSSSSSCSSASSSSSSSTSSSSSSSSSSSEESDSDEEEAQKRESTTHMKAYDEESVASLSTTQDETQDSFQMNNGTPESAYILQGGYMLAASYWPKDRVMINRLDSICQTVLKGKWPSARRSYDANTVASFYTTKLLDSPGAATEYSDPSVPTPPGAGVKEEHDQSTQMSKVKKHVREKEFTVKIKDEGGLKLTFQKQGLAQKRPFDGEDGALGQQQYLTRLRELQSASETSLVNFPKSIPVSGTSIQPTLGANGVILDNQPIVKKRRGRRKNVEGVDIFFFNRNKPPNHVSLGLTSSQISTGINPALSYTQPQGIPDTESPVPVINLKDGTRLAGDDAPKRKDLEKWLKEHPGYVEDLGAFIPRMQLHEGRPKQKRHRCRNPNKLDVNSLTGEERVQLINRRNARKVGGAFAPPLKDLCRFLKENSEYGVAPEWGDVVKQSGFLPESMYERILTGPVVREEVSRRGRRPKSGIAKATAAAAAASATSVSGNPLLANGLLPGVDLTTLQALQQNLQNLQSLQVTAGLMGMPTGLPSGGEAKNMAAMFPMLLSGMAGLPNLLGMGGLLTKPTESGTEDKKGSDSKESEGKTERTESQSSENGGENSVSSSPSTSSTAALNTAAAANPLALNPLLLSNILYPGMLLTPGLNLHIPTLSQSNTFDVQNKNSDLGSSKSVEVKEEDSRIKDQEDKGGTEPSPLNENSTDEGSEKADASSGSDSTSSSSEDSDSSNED
UniProt Q96NY7: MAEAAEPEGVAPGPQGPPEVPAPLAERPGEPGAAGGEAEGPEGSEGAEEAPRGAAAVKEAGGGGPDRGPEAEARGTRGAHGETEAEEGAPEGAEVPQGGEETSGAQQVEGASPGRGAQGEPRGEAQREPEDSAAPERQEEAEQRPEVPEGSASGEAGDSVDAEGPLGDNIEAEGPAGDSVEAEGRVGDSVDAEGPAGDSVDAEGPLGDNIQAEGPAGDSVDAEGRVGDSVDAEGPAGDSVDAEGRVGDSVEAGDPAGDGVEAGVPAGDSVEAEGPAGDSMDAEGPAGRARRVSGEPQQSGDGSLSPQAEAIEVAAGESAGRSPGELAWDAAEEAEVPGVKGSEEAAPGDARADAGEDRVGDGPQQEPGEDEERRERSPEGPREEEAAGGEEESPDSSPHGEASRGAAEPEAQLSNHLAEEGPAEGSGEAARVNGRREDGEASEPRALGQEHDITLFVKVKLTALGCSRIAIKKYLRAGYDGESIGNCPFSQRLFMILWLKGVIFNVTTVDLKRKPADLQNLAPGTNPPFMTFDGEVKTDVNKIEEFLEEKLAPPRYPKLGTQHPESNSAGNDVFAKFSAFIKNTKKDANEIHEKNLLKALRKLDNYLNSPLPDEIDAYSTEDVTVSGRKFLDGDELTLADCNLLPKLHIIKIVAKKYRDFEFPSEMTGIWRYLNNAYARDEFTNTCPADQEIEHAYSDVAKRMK
UniProt P61024, whole entry, looked up: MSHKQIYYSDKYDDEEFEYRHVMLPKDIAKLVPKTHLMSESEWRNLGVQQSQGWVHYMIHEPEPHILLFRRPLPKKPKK
UniProt Q8N1G2: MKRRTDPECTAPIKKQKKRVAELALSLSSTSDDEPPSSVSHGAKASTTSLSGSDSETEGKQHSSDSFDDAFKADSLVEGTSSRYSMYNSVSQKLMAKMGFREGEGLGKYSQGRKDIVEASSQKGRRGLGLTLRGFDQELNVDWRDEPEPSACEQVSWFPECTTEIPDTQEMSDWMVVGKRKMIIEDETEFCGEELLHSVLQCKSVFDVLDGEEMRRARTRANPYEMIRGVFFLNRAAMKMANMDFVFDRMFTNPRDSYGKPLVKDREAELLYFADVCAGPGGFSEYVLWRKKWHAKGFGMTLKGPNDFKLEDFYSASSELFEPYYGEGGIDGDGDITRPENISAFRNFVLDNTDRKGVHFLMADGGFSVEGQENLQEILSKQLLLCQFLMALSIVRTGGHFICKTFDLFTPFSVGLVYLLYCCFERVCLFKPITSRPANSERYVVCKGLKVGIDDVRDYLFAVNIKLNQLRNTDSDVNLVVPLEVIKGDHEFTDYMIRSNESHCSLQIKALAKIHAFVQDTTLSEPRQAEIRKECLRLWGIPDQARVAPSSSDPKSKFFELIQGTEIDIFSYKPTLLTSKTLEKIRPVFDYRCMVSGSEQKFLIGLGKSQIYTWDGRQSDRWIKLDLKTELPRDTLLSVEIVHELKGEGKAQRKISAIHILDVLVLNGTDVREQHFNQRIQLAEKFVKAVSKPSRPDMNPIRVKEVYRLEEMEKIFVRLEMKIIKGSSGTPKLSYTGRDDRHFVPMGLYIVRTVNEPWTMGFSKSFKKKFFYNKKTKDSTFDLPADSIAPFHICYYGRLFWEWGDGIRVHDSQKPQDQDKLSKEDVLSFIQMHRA

The list shows a part of the results.

Compound in this experiment: O=C1NC(=O)C(c2cnc3ccccn23)=C1c1cn2c3c(cc(F)cc13)CN(C(=O)N1CCCCC1)CC2
In words: log2 fold change, soluble protein after heating vs DMSO (PISA); higher = thermal stabilisation; K562 lysate, 10 uM; active = over 0.2 and 3.5 SD of the protein, either way, in both replicates (recomputed). The method, boiled down: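 A 30 min treatment with 10 μM compound was applied to crude K562 extract at 1 mg/mL protein in PBS pH 7.4 with 1 mM MgCl2. Heating for 3 min spanned 48°C-58°C, after which aliquots were pooled, adjusted to 0.5% NP-40 at 4°C and spun at 21,000xg for 90 min. TMTpro 16plex LC-MS/MS of the supernatant, with channel sums equalised, gave values recorded as log-two fold change in thermal stability against solvent controls, from duplicates.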
On to CLTC (UniProt Q00610), for which the log2 fold change is inactive: 0.031.
Turning to CISD2 (UniProt Q8N5K1), the log2 fold change is inactive: -0.013.
CHAF1B (UniProt Q13112): the log2 fold change is inactive: 0.01.
Then CLK3 (UniProt P49761), with inactive: -0.19; and CHCHD6 (UniProt Q9BRQ6), with inactive: -0.022.
Then CHMP6 (UniProt Q96FZ7), with inactive: 0.061.
To CLTA (UniProt P09496) belongs inactive: -0.003.
Consider CHD9 (UniProt Q3L8U1), for which the log2 fold change is inactive: -0.012.
CMSS1 (UniProt Q9BQ75): the log2 fold change is inactive: -0.024.
To CLUH, A0A494C0R8 belongs inactive: 0.033.
Take CHD4 isoform 2 (UniProt Q14839): the log2 fold change was inactive: 0.015.
For CLIC1 (UniProt O00299), the log2 fold change is inactive: -0.019.
With CLPTM1 (UniProt O96005), the log2 fold change was inactive: 0.013.
To CHD8 (UniProt Q9HCK8) belongs inactive: 0.039.
To CLIC6 (UniProt Q96NY7) belongs inactive: -0.014; to CIC (UniProt I3L2J0), inactive: 0.075; to CIP2A (UniProt Q8TCG1), inactive: 0.011.
To CLNS1A (UniProt P54105) belongs inactive: 0; to CMTM4 (UniProt Q8IZR5), inactive: -0.028; to CHD3 isoform 3 (UniProt Q12873), inactive: -0.004.
Take CHUK (UniProt O15111): the log2 fold change is inactive: 0.054.
Take CKS1B (UniProt P61024): the log2 fold change was inactive: -0.076.
For the target CHERP (UniProt Q8IWX8), the log2 fold change is inactive: -0.048.
On to CMTR1 (UniProt Q8N1G2), for which the log2 fold change is inactive: 0.048.
